Data source: PubChem BioAssay AID504786 (Drosophila RNAi Screening Center, 2011)
In all, the deposit lists about 21,000 reagents; shown is an unselected part of those with a known target gene and a result. 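Primary screen; positive scores mean lost reporter signal, so the sign may be inverted from the usual convention.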 Reagents against one gene are numbered here. A plus sign joins genes that one reagent is predicted to hit.

Purpose: 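Knock-downs reducing HIF reporter induction by the iron chelator DFO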 (primary screen)
System: Drosophila S2 cells with a stable HIF luciferase reporter
Reagents: long dsRNA against Drosophila genes, about 0.2 µg dsRNA per well of a 384-well plate
Duration: three days of knock-down, then 20 h of DFO before reading
Treatment: desferrioxamine (DFO) at 100 µM, an iron chelator that mimics hypoxia, for 20 h
Detection: 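Firefly luciferase driven by the mouse ldh-a hypoxia-response element, measured after 20 h of 100 µM DFO; z-scores per plate, higher means more signal lost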
Direction: z-score: higher = stronger loss of HIF reporter signal

| predicted target | reagent no. | z-score, replicate 1 | z-score, replicate 2 |
| --- | --- | --- | --- |
| na | 1 | -0.1 | -0.7 |
| Cpr67Fa1 | 1 | -0.3 | -0.4 |
| Amph | 1 | -0.3 | -1 |
| CG8135 + BBIP1 | 1 | -0.5 | -1.1 |
| CG8135 + BBIP1 | 2 | -0.3 | -0.4 |
| CG13924 | 1 | -0.3 | -0.3 |
| Gld | 1 | -0.2 | 0.2 |
| mTerf5 | 1 | -0.2 | -0.5 |
| JhI-26 | 1 | -0.3 | -0.5 |
| CG8314 | 1 | -0.3 | -0.4 |
| asun | 1 | -0.2 | -0.1 |
| CG7194 | 1 | -0.2 | -0.4 |
| hydra | 1 | -0.3 | -0.3 |
| kek4 | 1 | -0.2 | -0.3 |
| Med | 1 | -0.4 | 0.6 |
| obst-G | 1 | -0.2 | 0.2 |
| Npc1b | 1 | -0.2 | -0.2 |

4 of these entries, set out differently.
predicted target | reagent no. | z-score, replicate 1 | z-score, replicate 2
mTerf5 | 1 | -0.2 | -0.5
JhI-26 | 1 | -0.3 | -0.5
CG8314 | 1 | -0.3 | -0.4
asun | 1 | -0.2 | -0.1

Further records follow.
| predicted target | reagent no. | z-score, replicate 1 | z-score, replicate 2 |
| --- | --- | --- | --- |
| CG15725 | 1 | -0.2 | -0.6 |
| sau | 1 | -0.3 | 0.1 |
| Acp26Aa | 1 | -0.2 | -0.5 |
| viaf | 1 | -0.4 | -0.5 |
| sac | 1 | -0.2 | -0.1 |
| Vps20 | 1 | -0.4 | -0.3 |
| CG6125 | 1 | -0.2 | -0.6 |
| CG18249 | 1 | -0.4 | -0.3 |
| Sfp26Ad | 1 | 1.7 | 0.6 |
| Sas-6 | 1 | -0.3 | -0.3 |
| mle | 1 | 0 | -0.1 |
| CG31815 | 1 | -0.5 | 0.4 |
| Mipp1 | 1 | -0.2 | -0.2 |
| CG9040 | 1 | -0.5 | 0.6 |
| Manf | 1 | -0.2 | -0.6 |
| CG6013 | 1 | -0.3 | -0.5 |
| CG17580 | 1 | -0.3 | -0.5 |
